Among all 340,000 compounds or so, about 4,500 (1.3%) were called active. These results got no clear call from the source, so the numbers are uncertain. The call rests on the fitted dose curve; in most records, active means well fitted inhibition curve with a large enough effect; inconclusive means small, poorly fitted or top-dose-only effect, or another doubt; inactive means no such curve, though single readings can be large or run the other way.
Each molecule was assayed against DNA polymerase beta (Homo sapiens) (UniProt P06746) (assay: qHTS Assay for Inhibitors of DNA Polymerase Beta). Settings: Pol beta primer extension/strand displacement, fluorescence kinetic.
From the text: The base excision repair system in human cells is a target for therapeutic modulation of the response to irradiation treatment and DNA-damaging drugs. A key enzyme in this system is the bi-functional DNA polymerase known as DNA polymerase Beta (Pol Beta). The following is a homogeneous kinetic assay to study the primer extension and strand-displacement reaction catalyzed by pol beta.
A stepwise description of the 1536-well assay is shown in next Table. Three microliters of reagents (buffer in column 3 and 4 as negative control and 10 nM Pol beta in columns 1, 2, and 5-48) was dispensed into 1,536-well black solid-bottomed plate. Compounds (23 nL) were transferred via Kalypsys pin tool equipped with 1536-pin array (10 nL slotted pins, V&P Scientific, San Diego, CA). The plates were incubated for 15 min at room temperature, and 1 uL substrate (50 nM final concentration) were added to start the reaction and immediately read at 0 min read on Viewlux reader. The plate were further incubated for 10 min at room temperature, and then read on Viewlux again. Throughout the screen, reagent bottle and all liquid lines were chilled and made light-tight to minimize reagent degradation. All screening operations were performed on a fully integrated robotic system (Kalypsys, San Diego, CA) containing one RX-130 and two RX-90 anthropomorphic robotic arms (Staubli, Duncan, SC). […]
Potency means the concentration at half of the fitted maximal effect.

SMILES | Potency
O=C(OC1CN2CCC1CC2)C1c2ccccc2C=Cc2ccccc21 (configuration not stated) | inconclusive: 39.8 µM
CN1CCC(Nc2ccc(Cl)cc2)CC1 | inconclusive: 100 µM

Source: PubChem BioAssay AID485314 (National Center for Advancing Translational Sciences (NCATS), 2010)
